PubChem BioAssay AID504791, Drosophila RNAi Screening Center | 2011
The screen tested about 23,000 reagents; below is a random part of those that have a named target and a result. Of all reagents, 199 (0.86%) are marked active. 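Plate-scaled ratios behind the calls are not deposited; printed light signals are raw; many rows marked increased or decreased are still called inactive.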 Entries without a mark were called inactive. The numbers tell different reagents against one gene apart. A plus sign joins genes that one reagent is predicted to hit. Further read-outs or replicates are left out here. Not stated in the record: the direction of the score.

Purpose: 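Genes whose knock-down strengthens or weakens small-RNA reporter silencing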 (primary screen)
Cell system: Drosophila S2-derived reporter cells
Knock-down reagent: long dsRNA against Drosophila genes, about 150-250 ng dsRNA per well (siRNA assay); about 80-120 ng (miRNA assay)
Timing: about 5 days (siRNA assay); about 4 days (miRNA assay)
Treatment: copper sulfate induction of reporters: 25 µM (siRNA assay); 200 mM stated (miRNA assay), 1-2 days before reading
Measured: 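Per-well ratio of Renilla over firefly light, expressed relative to that plate's average ratio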
Active means: 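First-pass picks had plate-scaled ratios over 1.5 for the siRNA assay, over 1.6 for the miRNA assay, or under 0.6; two distinct dsRNAs had to score alike on retest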

gene	dsRNA no.	stable siRNA reporter change	miRNA reporter change	stable assay Renilla, run 1 (luminescence)
Meltrin	1			10228
Meltrin	2			9399
abo	1			7330
CG43367 + CG32252 (retired record)	1			8612
Sema1a	1			5858
CG32459	1			7071
CG14414	1			5403
Tsp26A	1			8198
Psn	1			6683
CG15186	1			6864
TBC1d7 + mRpS24	1			6226
Ntl	1			2911
sphinx2	1			9779
Aldh-III	1			14933
CR18228	1			8490
Shawl	1			6419
Shawl	2			6542
CG15199	1			4527
tefu	1			7700
CG6179	1			5578
Zcchc7	1			7415
CG10803	1			7554
CG14491	1			4587
CG8067	1			8674
Nep4	1			8639
CG11044	1			6410
CG31647 (retired record)	1			10034
CG11345	1			6167
Idh3b	1			9200
Cyp12b2	1			6300
ec	1			7975
ec	2			7707
ec	3			6294
CG3337	1			4120
CG7220	1			7015
CG7220	2			6922
CR14033	1			11398
BomS4	1			5171
r2d2	1			7606
CG3257	1			7038
CG13312	1			6451
CG17380	1			6938
CG4956	1			6162
CG17260	1			13639
Vps24	1			5198
CG11585	1			5006
CG7139	1			8265
ZAP3	1			7827
ZAP3	2			5236
ZAP3	3			4864
qvr	1			5870
Der-2	1			7394
zld	1			5075
zld	2			8231
zld	3			4643
Cep97	1			15562
CG9649	1			7783
IleRS	1			9785
CG34133	1			7790
CG34133	2			8092
Naa60	1			5443
yellow-d2	1			7691
CG7685	1			7299
CG7685	2		reporter ratio lowered past the hit cutoff	
Spindly	1			9354
ms(3)76Ba	1			9467
CG13002	1			5198
CG8100	1			8091
BigH1	1			9720
CG42238	1			19059
Rtnl1	1			5267
Rtnl1	2			12408
Rtnl1	3			13956
Rtnl1	4			9650
CG8312	1			5702
eIF4E1	1			9294
mRRF1	1			8106
Secp43	1			9589
Dlg5	1			5870
CG13299	1			6808
CG32276	1			5374
Rpn11	1	reporter ratio raised past the hit cutoff (active)		4604
Polr1D + DCTN6-p27	1			6498

3 entries from above, sorted by “stable assay Renilla, run 1 (luminescence)”, highest first.
gene	dsRNA no.	stable siRNA reporter change	miRNA reporter change	stable assay Renilla, run 1 (luminescence)
Secp43	1			9589
CG13299	1			6808
Dlg5	1			5870
